Patent publication US20120003668A1, “HIGH RESOLUTION COMPLEX STRUCTURE AND ALLOSTERIC EFFECTS OF LOW MOLECULAR WEIGHT ACTIVATORS ON THE PROTEIN KINASE PDK1” (UNIVERSITAET DES SAARLANDES, priority 2008, published 2012)
No constants are given. Whether binding was seen depends on the method and setting. Some binding calls cover weakened binding; strength is not graded here.

Target: T1, PDK1 50-359 [Tyr288Gly; Gln292Ala] (human) (UniProt O15530)
T1 sequence: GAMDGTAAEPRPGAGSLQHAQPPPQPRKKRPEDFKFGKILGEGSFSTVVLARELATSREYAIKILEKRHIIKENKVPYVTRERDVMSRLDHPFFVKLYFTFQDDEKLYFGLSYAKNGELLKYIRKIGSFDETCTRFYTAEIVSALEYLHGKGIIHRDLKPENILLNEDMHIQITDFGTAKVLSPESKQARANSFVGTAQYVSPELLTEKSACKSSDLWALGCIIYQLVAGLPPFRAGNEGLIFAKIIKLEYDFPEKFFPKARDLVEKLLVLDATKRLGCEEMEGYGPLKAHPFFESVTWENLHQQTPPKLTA
Test: co-crystal structure PDK1-33 (crystal form IV)

binding: binds
Binder: KGAGGGGFPQFSYSA [HM-peptide derived from PKB sequence]
